Test results reported in PMC4070083.
These are yes or no findings as the source states them, for the method shown. Binding calls can cover weak binding; strength is not graded here.

Legend:
[1] = biological target: SlTCP1 (tomato (Solanum lycopersicum)) (UniProt K4B8V2); assay: two-hybrid; matrix of all combinations; GAL4 BD baits (pDEST32) in yeast PJ69-4α mated with GAL4 AD preys (pDEST22) in PJ69-4a; growth on SD -Leu -Trp -Ade (-LTA) and -Leu -Trp -His (-LTH) with 5, 10 or 15 mM 3-AT; plates at 20°C, scored after 5 d; in triplicate
[2] = biological target: SlTCP2 (tomato (Solanum lycopersicum)) (UniProt Q9FR55); assay: as above

SlTCP19 (from UniProt A0A3Q7HYI7)
binding [1]: binds | binding [2]: binds
